From article doi:10.1101/2022.07.12.499818
No constants are given. Whether binding was seen depends on the method and setting. Binding seen in cells or lysates may run through a third protein. For some assays here: Sequences can lack the tags named with a protein.

By UniProt entry, the sequences of proteins in these tests, tags left out.
UniProt P25858: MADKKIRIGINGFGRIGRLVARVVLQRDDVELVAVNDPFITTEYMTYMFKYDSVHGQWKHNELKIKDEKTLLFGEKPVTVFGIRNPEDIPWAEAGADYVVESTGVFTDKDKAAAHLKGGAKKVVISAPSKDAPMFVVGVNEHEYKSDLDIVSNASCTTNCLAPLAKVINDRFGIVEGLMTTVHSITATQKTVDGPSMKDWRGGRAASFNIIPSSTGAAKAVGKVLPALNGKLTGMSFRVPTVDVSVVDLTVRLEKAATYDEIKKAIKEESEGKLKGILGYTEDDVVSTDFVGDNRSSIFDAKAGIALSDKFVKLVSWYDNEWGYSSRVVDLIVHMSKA
UniProt P48491: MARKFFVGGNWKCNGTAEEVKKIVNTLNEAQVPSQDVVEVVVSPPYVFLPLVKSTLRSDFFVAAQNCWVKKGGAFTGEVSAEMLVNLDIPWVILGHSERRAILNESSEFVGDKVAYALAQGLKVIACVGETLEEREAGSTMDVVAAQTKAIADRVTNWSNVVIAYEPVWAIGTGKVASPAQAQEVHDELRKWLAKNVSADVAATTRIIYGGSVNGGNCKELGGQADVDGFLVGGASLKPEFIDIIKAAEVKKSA
UniProt Q42525: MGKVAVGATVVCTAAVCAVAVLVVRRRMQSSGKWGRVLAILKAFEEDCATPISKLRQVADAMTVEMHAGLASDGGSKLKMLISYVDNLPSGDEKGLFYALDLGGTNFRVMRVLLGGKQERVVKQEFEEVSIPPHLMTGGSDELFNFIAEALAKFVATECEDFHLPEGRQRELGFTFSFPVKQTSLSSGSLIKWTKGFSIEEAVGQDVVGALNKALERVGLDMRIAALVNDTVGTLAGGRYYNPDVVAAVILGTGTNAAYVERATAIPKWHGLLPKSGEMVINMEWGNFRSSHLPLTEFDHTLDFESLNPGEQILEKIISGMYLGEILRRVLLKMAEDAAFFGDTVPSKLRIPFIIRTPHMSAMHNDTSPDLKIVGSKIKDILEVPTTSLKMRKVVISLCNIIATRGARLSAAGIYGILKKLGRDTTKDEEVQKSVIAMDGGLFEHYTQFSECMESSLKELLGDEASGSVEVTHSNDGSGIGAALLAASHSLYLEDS

Experiments:
Assay in all cases: split reporter
[1] = biological target: cytosolic phosphorylating glyceraldehyde-3-phosphate dehydrogenase 1 (GAPC1), BiFC fusion (Arabidopsis) (UniProt P25858)
[2] = biological target: T1, phosphoglycerate kinase 3 (PGK3), BiFC fusion (Arabidopsis) (UniProt Q9SAJ4)
T1 sequence: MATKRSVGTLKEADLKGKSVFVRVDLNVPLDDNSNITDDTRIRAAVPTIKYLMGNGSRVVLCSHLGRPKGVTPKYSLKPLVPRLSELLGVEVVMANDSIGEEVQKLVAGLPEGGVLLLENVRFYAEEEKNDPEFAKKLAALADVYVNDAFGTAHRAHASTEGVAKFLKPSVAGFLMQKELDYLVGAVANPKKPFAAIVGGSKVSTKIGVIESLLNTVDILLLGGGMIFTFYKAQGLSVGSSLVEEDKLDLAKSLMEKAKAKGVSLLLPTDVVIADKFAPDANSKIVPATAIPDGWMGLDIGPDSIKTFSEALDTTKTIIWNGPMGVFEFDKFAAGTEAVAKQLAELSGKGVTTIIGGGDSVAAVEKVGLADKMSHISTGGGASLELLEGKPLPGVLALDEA

[3] = biological target: cytosolic triose phosphate isomerase (CyTPI), BiFC fusion (Arabidopsis) (UniProt P48491)
[4] = biological target: T2, ATG13a, BiFC fusion (Arabidopsis) (UniProt Q9SCK0)
T2 sequence: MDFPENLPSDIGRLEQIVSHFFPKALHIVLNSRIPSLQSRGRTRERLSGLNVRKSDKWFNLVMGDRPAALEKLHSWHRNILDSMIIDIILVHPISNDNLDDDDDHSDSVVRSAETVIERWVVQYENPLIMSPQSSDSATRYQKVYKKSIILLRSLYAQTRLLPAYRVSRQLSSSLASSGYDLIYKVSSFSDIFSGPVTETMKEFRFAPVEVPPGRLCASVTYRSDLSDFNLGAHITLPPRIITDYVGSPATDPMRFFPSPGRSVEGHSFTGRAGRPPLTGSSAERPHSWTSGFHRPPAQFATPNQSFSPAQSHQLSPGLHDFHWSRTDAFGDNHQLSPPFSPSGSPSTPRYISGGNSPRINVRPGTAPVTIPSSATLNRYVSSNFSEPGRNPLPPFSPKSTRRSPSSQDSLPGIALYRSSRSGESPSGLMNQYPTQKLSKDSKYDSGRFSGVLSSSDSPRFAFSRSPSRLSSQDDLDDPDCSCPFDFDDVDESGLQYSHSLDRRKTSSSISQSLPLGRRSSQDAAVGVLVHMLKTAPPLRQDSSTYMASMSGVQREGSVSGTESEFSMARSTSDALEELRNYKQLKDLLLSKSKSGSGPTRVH

[5] = biological target: T3, ATG13b, BiFC fusion (Arabidopsis) (UniProt F4J8V5)
T3 sequence: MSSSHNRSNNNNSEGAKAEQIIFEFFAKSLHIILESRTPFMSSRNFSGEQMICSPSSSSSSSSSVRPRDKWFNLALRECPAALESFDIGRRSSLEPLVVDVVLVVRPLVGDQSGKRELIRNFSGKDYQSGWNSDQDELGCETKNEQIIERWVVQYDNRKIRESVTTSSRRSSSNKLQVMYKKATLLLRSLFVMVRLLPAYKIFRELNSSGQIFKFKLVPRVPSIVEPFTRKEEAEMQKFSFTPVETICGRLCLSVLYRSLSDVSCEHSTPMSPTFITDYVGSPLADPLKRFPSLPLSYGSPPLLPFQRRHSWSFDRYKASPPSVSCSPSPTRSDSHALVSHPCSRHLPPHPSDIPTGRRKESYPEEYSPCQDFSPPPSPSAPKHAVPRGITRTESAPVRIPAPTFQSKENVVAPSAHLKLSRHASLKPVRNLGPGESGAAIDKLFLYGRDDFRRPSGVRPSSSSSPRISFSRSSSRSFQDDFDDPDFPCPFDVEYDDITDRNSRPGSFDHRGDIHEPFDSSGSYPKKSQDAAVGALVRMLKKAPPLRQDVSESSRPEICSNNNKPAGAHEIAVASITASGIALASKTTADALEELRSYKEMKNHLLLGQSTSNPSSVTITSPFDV

Measured: binding

Hexokinase 1 (HXK1), BiFC fusion (from UniProt Q42525 1-496) (enzyme)
no binding: all assays above
